# Measurements from PubChem BioAssay AID445 (National Center for Advancing Translational Sciences (NCATS), 2006).
# The list shows a part of the results. Further columns of the screen follow, without active or inactive calls. The list favours compounds with an active or inconclusive main result. Words in brackets tell the shape of the fitted curve; partial curves, single points and poor fits give uncertain potencies.
# Assay: IkB Signaling
# Details: ABC-DLBCL IkBa-CBG/CBR dual luciferase ratio (green luciferase fused to IkBa over red control in OCI-Ly3 lymphoma cells), 4 h
# How it was run: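 Curves were fitted separately to fusion (green), unfused (red) and ratio luminescence, then classed by r2, magnitude and activity. Cells: OCI-Ly3, 4 h compound plus doxycycline at 37C; 10 uM MG-132 defined full response.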
# [1] = measured here: control luc red channel unless noted
# [2] = measured here: IkB-luc green channel
# [3] = measured here: control luc red channel
smiles,measurement,setting,value
Cc1ccc(Cn2c(CNC(=O)CCc3ccccc3)nc3cccnc32)cc1,AC50,[1],"0.794 µM [rising, full curve, poor fit]"
COc1ccc(C2=Nc3ccc(F)cc3NC(c3cccc(C(F)(F)F)c3)=N2)cc1,AC50,[1],"25.1 µM [falling, partial curve]"
COC(=O)c1ccccc1NC(=O)c1cnc(Nc2ccc(OC)cc2)c2ccccc12,AC50,[1],"2.51 µM [falling, partial curve]"
O=C(O)CCC(=O)Nc1sc2c(c1C(=O)Nc1ccccc1)CCCCC2,AC50,[1],"15.8 µM [falling, partial curve]"
Cc1ccsc1CN(C(=O)c1ccc(OCC(C)C)cc1)C1CCS(=O)(=O)C1 (centres undefined),AC50,[1],"25.1 µM [falling, partial curve]"
CCc1ccc(NC(=O)c2ccc(F)c(S(=O)(=O)N3CCN(c4ccc(OC)cc4)CC3)c2)cc1,AC50,[1],"0.251 µM [falling, full curve, poor fit]"
CCOC(=O)c1cccc(NS(=O)(=O)c2cc(-c3cnc(C4CC4)o3)ccc2C)c1,AC50,[1],"39.8 µM [falling, single point]"
Cc1ccc(Sc2c(C)nn(C(=O)c3ccc(Cl)cc3)c2C)cc1,AC50,[1],"10 µM [falling, partial curve]"
CCC(c1nnnn1Cc1cccs1)N1CCN(c2nc3ccccc3s2)CC1 (centres undefined),AC50,[1],"25.1 µM [falling, partial curve]"
Cc1ccc(-n2c3nc(=O)[nH]c(=O)c-3cc3c(C)nn(-c4ccccc4)c32)cc1C,AC50,[1],"0.1 µM [falling, full curve]"
COc1ccccc1CNC(=O)CCCN1C(=O)CSc2c1c(C)nn2-c1ccccc1,AC50,[1],"12.6 µM [falling, partial curve]"
CC(=O)N1CCOc2cc(S(=O)(=O)NCc3ccc(F)cc3)c(C)cc21,AC50,[1],"0.631 µM [falling, full curve]"
O=C(NC1CCCc2ccccc21)c1ccc2c(c1)sc1nc(-c3ccccc3)cn12 (centres undefined),AC50,[1],"12.6 µM [falling, partial curve]"
O=C(Nc1ccc2c(c1)CCCN2C(=O)c1cccs1)c1ccccc1,AC50,[1],"39.8 µM [falling, single point]"
CC(CNC(=O)CCc1cn(Cc2ccccc2Cl)c2ccccc12)c1ccccc1 (centres undefined),AC50,[1],"25.1 µM [falling, partial curve]"
Cc1c(C(=O)NCc2cccc(Cl)c2)sc2nc[nH]c(=O)c12,AC50,[1],"1.26 µM [rising, full curve]"
COc1cccc(Oc2nc(C)nc3c2oc2ccccc23)c1,AC50,[1],"39.8 µM [falling, single point]"
COc1cc(S(=O)(=O)N2CCN(c3ccccc3F)CC2)ccc1Cl,AC50,[1],"10 µM [falling, partial curve]"
C/C(=C\C(=O)c1ccccc1)Nc1cccc(O)c1,AC50,[1],"10 µM [falling, partial curve]"
Oc1ccc(Cl)cc1/C=N/c1nc2ccccc2[nH]1,AC50,[1],"0.251 µM [falling, full curve]"
Cc1nc(N2CCCC2)c2c(C(=O)Nc3cccc(Cl)c3)c(C)oc2n1,AC50,[1],"3.16 µM [falling, single point]"
O=C(Nc1ccc(Br)cc1)C1CCCN(S(=O)(=O)c2ccc(Br)s2)C1 (centres undefined),AC50,[1],"20 µM [falling, partial curve]"
Fc1cccc2sc(Nc3nnc(-c4ccco4)o3)nc12,AC50,[2],"5.01 µM [rising, partial curve]"
same,AC50,[3],"0.00794 µM [falling, full curve]"
Cc1nnc(NC(=O)c2sc3ccccc3c2Cl)s1,AC50,[1],"39.8 µM [falling, single point]"
O=C(NCc1ccco1)c1cccn2c(=O)c3cc(Br)ccc3nc12,AC50,[1],"15.8 µM [falling, partial curve]"
Cc1ccc(NC(=O)CN2C(=O)C(c3ccc(F)cc3)=NC23CCCCC3)c(C)c1,AC50,[1],"10 µM [falling, single point]"
Cc1ccc(C)c(Cn2c(C(C)NC(=O)c3ccc(F)cc3)nc3ccccc32)c1 (centres undefined),AC50,[1],"39.8 µM [falling, single point]"
CCN(c1ccccc1)S(=O)(=O)c1cc(-c2onc(C)c2C)ccc1OC,AC50,[1],"10 µM [falling, partial curve]"
Cc1c2cnn(CC(=O)N3CCN(c4ccccc4)CC3)c(=O)c2c(C)n1Cc1ccc(F)cc1,AC50,[1],"15.8 µM [falling, partial curve]"
CCOc1ccccc1NC(=O)CCS(=O)(=O)c1cccc2nsnc12,AC50,[1],"39.8 µM [rising, single point]"
CC1(C)CC(=O)C2=C(C1)OC1=C(C(=O)CC(C)(C)C1)C2c1ccc(O)cc1O,AC50,[2],"1.26 µM [rising, single point]"
same,AC50,[3],"7.94 µM [falling, full curve]"
CCOCCCNC(=O)C(c1ccccc1)N(Cc1cccs1)C(=O)c1ccc(NC(C)=O)cc1 (centres undefined),AC50,[1],"3.98 µM [falling, full curve]"
COc1cccc(N2C(=O)C(CC(=O)Nc3ccc(Cl)cc3)N(Cc3ccc4c(c3)OCO4)C2=O)c1 (centres undefined),AC50,[1],"25.1 µM [falling, partial curve]"
Cc1cccc(N2CCN(C(=O)C3CCCN(S(=O)(=O)c4cccc5nsnc45)C3)CC2)c1C (centres undefined),AC50,[1],"39.8 µM [falling, single point]"
Cc1cccc(-c2noc(CCCC(=O)NCc3ccco3)n2)c1,AC50,[1],"25.1 µM [falling, single point]"
O=C(NCCc1c[nH]c2ccccc12)c1c(Cl)nc2sccn12,AC50,[1],"0.398 µM [rising, full curve, poor fit]"
Cc1ccc(Nc2ncnc3c2cnn3-c2ccccc2)c(C)c1,AC50,[1],"12.6 µM [falling, partial curve]"
COc1cccc(CNC(=O)c2cc3cccc4c3n2CC(C)S4)c1OC (centres undefined),AC50,[1],"20 µM [falling, partial curve]"
COc1cc2c(=O)c(S(=O)(=O)c3ccc(F)cc3)cn(Cc3ccccc3C)c2cc1OC,AC50,[1],"15.8 µM [falling, partial curve]"
Cc1ccc(-n2cc(-c3ccccc3)c3c(NC4CCCC4)ncnc32)cc1,AC50,[1],"3.98 µM [rising, partial curve, poor fit]"
Cc1ccc(-c2noc(-c3ccc(N4CCC(C)CC4)c([N+](=O)[O-])c3)n2)cc1,AC50,[1],"1.58 µM [rising, full curve]"
O=C(Cc1ccccc1)N(Cc1cccnc1)c1nc2c(F)cccc2s1,AC50,[1],"25.1 µM [falling, single point]"
COc1cccc(C(=O)NC2CC3CCCC(C2)N3CC(=O)Nc2ccccc2)c1 (centres undefined),AC50,[1],"20 µM [falling, partial curve]"
CCOc1cccc2cc(-c3cn4c(n3)sc3cc(C)ccc34)c(=O)oc12,AC50,[1],"0.631 µM [falling, full curve]"
Cc1cc(C)c2c(CC(=O)Nc3ccc(S(=O)(=O)N4CCCC(C)C4)cc3)coc2c1 (centres undefined),AC50,[1],"15.8 µM [falling, partial curve]"
Cc1ccc(OCC(=O)Nc2cccc(OCc3cc(=O)n4ccccc4n3)c2)cc1C,AC50,[1],"0.251 µM [falling, full curve]"
Cc1cc(C)cc(OCCn2c(C3CC(=O)N(c4ccccc4Cl)C3)nc3ccccc32)c1 (centres undefined),AC50,[1],"39.8 µM [falling, single point]"
O=C(Nc1nc2ccccc2s1)C1CCCO1 (centres undefined),AC50,[1],"12.6 µM [falling, partial curve]"
COc1ccc(CCNC(=O)CCn2c(=O)c3ccccc3n(CC(=O)Nc3ccccc3F)c2=O)cc1OC,AC50,[1],"0.00794 µM [falling, full curve, poor fit]"
CC(C)(C)c1ccc(C2Sc3ccccc3NC3=C2C(=O)c2ccccc23)cc1 (centres undefined),AC50,[1],"15.8 µM [falling, partial curve]"
CCOC(=O)c1cc(S(=O)(=O)Nc2ccc(Br)c(C)c2)[nH]n1,AC50,[1],"15.8 µM [falling, partial curve]"
Cc1ccc2c(c1)c1c(c(=O)n(-c3cccc(Cl)c3)c(=O)n1CC(=O)N1CCCC1)n2C,AC50,[1],"39.8 µM [falling, single point]"
COc1ccc(Br)cc1CNC(=O)c1cc2ccccn2n1,AC50,[1],"25.1 µM [falling, partial curve]"
Cn1c(CN2CCCCC2)nc2cc(NC(=O)c3cccc(Br)c3)ccc21,AC50,[1],"0.631 µM [falling, full curve]"
CC(C)(C)c1csc(NC(=O)c2cccs2)n1,AC50,[1],"12.6 µM [falling, single point]"
CCC(C(=O)Nc1ccccc1C(=O)OC)n1c(C)c2cnn(-c3ccccc3)c(=O)c2c1C (centres undefined),AC50,[1],"15.8 µM [falling, single point]"
CCOc1ccccc1Oc1cn[nH]c1-c1ccc(OC)cc1O,AC50,[1],"15.8 µM [falling, partial curve]"
COc1ccc(Cn2c(C(=O)O)c(CNCc3cccc(OC)c3)c3ccc(C)cc32)cc1,AC50,[1],"25.1 µM [falling, partial curve, poor fit]"
CCCCN(CC)CCNC(=O)Cn1cnc2sc(C)c(S(=O)(=O)N3CCC(C)CC3)c2c1=O,AC50,[1],"0.0501 µM [falling, partial curve, poor fit]"
COC(=O)c1cnn(-c2ccc(C(=O)Nc3cccc(C(C)=O)c3)cc2)c1N,AC50,[1],"12.6 µM [falling, partial curve]"
Cn1c(=O)oc2cc(S(=O)(=O)N3CCC(C(=O)NCc4ccccc4Cl)CC3)ccc21,AC50,[1],"25.1 µM [rising, partial curve, poor fit]"
Cc1c(/C=N/n2cnnc2)c2ccccc2n1CCOc1ccc(Cl)cc1,AC50,[1],"39.8 µM [rising, single point] [measured here: IkB-luc green channel]"

# Four entries from above, bar-delimited.
smiles | measurement | setting | value
Cc1ccc(Cn2c(CNC(=O)CCc3ccccc3)nc3cccnc32)cc1 | AC50 | [1] | 0.794 µM [rising, full curve, poor fit]
COc1ccc(C2=Nc3ccc(F)cc3NC(c3cccc(C(F)(F)F)c3)=N2)cc1 | AC50 | [1] | 25.1 µM [falling, partial curve]
COC(=O)c1ccccc1NC(=O)c1cnc(Nc2ccc(OC)cc2)c2ccccc12 | AC50 | [1] | 2.51 µM [falling, partial curve]
O=C(O)CCC(=O)Nc1sc2c(c1C(=O)Nc1ccccc1)CCCCC2 | AC50 | [1] | 15.8 µM [falling, partial curve]
